From PMC7862700
The entries are a selection whose mix differs from that of the whole data set. At the low end of the ranking the order means little.

Amino acid sequences for entries named in this document (tags omitted). A change or cut given only in a name is not applied to a line headed by its entry.
UniProt Q9Y603: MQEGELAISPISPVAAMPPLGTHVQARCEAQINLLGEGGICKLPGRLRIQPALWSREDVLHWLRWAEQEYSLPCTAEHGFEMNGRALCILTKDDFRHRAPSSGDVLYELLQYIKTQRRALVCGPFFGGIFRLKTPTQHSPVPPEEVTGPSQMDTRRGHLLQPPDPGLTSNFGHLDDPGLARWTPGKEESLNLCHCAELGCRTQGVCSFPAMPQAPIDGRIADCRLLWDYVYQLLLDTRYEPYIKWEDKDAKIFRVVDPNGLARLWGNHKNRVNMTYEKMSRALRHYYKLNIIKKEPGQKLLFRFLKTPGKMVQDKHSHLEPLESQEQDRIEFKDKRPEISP
UniProt P41212: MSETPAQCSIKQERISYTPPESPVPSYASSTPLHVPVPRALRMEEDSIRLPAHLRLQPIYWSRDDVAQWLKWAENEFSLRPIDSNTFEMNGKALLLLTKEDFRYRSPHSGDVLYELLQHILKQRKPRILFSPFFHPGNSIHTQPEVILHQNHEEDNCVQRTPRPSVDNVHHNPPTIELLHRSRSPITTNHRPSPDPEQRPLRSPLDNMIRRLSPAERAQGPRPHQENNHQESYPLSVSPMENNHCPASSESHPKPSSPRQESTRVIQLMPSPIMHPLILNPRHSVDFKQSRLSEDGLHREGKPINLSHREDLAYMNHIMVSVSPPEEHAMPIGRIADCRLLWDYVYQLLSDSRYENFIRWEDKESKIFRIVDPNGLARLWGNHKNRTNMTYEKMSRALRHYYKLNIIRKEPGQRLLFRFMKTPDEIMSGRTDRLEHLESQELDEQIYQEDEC

How the values were obtained:
Assay in all cases: DAPPL (digital affinity profiling via proximity ligation, sequencing)
Settings in all cases: 10 mM Tris-HCl pH 7.5, 50 mM NaCl, 1 mM DTT, 4% glycerol, room temperature, 30 min; GST-TFs on glutathione beads, 16-mer random dsDNA library, 0.1% …; high values mean tight binding; double strand, one strand shown; scale: fold enrichment (6-mer frequency, TF over GST control)
ELF3 = molecular target: T1, ELF3 (UniProt P78545)
T1 sequence: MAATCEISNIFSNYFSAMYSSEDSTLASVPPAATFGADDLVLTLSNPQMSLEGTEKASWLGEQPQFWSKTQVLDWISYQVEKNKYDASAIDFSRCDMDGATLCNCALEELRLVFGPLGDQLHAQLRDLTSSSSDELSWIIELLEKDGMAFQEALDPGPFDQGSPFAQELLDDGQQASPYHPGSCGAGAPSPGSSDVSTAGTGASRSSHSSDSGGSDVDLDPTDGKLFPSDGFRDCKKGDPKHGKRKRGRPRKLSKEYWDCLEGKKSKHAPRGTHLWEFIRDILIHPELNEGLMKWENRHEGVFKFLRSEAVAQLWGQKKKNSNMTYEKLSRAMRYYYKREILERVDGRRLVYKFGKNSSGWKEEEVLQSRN

ETV7 = ETV7 (UniProt Q9Y603)
ETV6 = ETV6 (UniProt P41212)

Sequence | binding signal (ELF3) | binding signal (ETV7) | binding signal (ETV6)
CAGGCC | 0.686 | 0.745 | 0.657
GACAGT | 0.432 | 0.502 | 0.43
ATCGTG | 0.426 | 0.426 | 0.4
GAGGAA | 0.902 | 0.723 | 0.932
GGGGAA | 0.712 | 0.743 | 0.821
AAGTGA | 0.645 | 0.705 | 0.731
GGTAGG | 0.713 | 0.794 | 0.688
CGGTGT | 0.704 | 0.703 | 0.729
CAGCCG | 0.688 | 0.77 | 0.659
GTAAGA | 0.851 | 0.781 | 0.792
CGCGGT | 0.858 | 0.778 | 0.782
AGAGTC | 0.453 | 0.489 | 0.467
TCGTAG | 0.836 | 0.965 | 0.791
GCGCAA | 0.762 | 0.849 | 0.75
CAGGTG | 0.533 | 0.598 | 0.565
GCGTCG | 0.752 | 0.854 | 0.817
CGGTAA | 0.928 | 0.925 | 0.975
GACAAG | 0.796 | 0.762 | 0.835
GGACGA | 0.618 | 0.627 | 0.629
AGTGAA | 0.881 | 0.976 | 0.924

Sequence | binding signal (ELF3) | binding signal (ETV7) | binding signal (ETV6)
GAGGCA | 0.485 | 0.499 | 0.444
GGCCGA | 0.722 | 0.713 | 0.771
CGTCGT | 0.818 | 0.874 | 0.905
TAGGAC | 0.853 | 0.862 | 0.851
GGCAAC | 0.94 | 0.961 | 0.942
GGGGTA | 0.744 | 0.87 | 0.675
GGACTA | 0.998 | 0.868 | 0.813
GAGCTA | 1.02 | 0.887 | 0.92
GGAGGA | 0.269 | 0.281 | 0.265
GCCAGC | 0.784 | 0.778 | 0.684
GGTCGA | 0.734 | 0.809 | 0.715
GAGCCC | 0.816 | 0.71 | 0.758
AAGCGT | 0.908 | 0.927 | 0.863
CGAGAG | 0.412 | 0.466 | 0.373
TCAGGT | 0.877 | 0.865 | 0.846
CAGTAG | 0.605 | 0.583 | 0.629
AGACAC | 0.714 | 0.823 | 0.781
TGAGGC | 0.399 | 0.552 | 0.454
AGGGTC | 0.861 | 0.892 | 0.886
CAACAG | 1.03 | 0.967 | 0.961

Retrieved one by one from the entries so far (three):
Sequence | binding signal (ELF3) | binding signal (ETV7) | binding signal (ETV6)
GGACTA | 0.998 | 0.868 | 0.813
CGAGAG | 0.412 | 0.466 | 0.373
AGACAC | 0.714 | 0.823 | 0.781

Additional records:

Sequence | binding signal (ELF3) | binding signal (ETV7) | binding signal (ETV6)
CATGGA | 0.899 | 0.876 | 0.927
GCCAGG | 0.512 | 0.578 | 0.442
CCAGTG | 0.444 | 0.559 | 0.451
GAGCTG | 0.736 | 0.72 | 0.695
CGGCGA | 0.614 | 0.775 | 0.755
GGCGGC | 0.565 | 0.654 | 0.623
GAGCAA | 0.885 | 0.8 | 0.696
AGTCTG | 0.62 | 0.724 | 0.544
GGCGAC | 0.752 | 0.755 | 0.831
CCGAGA | 0.554 | 0.684 | 0.599
GTAGGG | 0.734 | 0.874 | 0.738
GCGGGT | 0.653 | 0.684 | 0.587
CCCGGG | 0.629 | 0.764 | 0.795
GGAGAG | 0.301 | 0.327 | 0.271
TGCAGG | 0.959 | 0.909 | 0.967
GGGTCC | 0.683 | 0.885 | 0.779
GAGTTT | 0.633 | 0.719 | 0.639
GACAGC | 0.86 | 0.859 | 0.758
AGACGA | 0.753 | 0.73 | 0.633
TTGTGA | 0.775 | 0.78 | 0.728
